Reference: PMC8695909

Amino acid sequences for entries named in this document (tags omitted).
UniProt O15169: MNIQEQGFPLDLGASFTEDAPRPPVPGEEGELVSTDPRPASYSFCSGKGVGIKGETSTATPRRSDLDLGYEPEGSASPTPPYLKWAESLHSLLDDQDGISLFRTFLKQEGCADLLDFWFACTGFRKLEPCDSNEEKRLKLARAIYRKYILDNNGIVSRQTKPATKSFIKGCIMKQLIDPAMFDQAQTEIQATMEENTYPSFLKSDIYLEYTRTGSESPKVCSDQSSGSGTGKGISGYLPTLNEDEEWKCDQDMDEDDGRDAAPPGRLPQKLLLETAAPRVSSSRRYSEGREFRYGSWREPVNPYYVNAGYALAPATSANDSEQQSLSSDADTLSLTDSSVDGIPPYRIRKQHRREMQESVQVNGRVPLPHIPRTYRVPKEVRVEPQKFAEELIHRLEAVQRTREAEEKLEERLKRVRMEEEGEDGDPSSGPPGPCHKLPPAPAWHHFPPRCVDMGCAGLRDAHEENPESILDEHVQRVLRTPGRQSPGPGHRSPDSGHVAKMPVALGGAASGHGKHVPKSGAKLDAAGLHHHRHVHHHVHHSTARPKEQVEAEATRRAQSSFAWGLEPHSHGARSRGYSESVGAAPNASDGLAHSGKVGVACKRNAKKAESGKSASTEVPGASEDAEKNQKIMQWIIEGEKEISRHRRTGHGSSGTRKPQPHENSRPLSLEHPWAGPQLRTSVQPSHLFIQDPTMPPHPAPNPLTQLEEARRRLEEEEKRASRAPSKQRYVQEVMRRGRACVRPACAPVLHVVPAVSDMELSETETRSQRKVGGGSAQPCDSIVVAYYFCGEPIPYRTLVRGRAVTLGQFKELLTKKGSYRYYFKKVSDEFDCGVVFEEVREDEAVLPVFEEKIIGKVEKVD

Molecular target: T1, TRIM54 (Flag-tagged, expressed from pCDH-CMV-MCS-3Flag-EF1-CopGFP-T2A-Puro) (human) (UniProt Q9BYV2)
T1 sequence: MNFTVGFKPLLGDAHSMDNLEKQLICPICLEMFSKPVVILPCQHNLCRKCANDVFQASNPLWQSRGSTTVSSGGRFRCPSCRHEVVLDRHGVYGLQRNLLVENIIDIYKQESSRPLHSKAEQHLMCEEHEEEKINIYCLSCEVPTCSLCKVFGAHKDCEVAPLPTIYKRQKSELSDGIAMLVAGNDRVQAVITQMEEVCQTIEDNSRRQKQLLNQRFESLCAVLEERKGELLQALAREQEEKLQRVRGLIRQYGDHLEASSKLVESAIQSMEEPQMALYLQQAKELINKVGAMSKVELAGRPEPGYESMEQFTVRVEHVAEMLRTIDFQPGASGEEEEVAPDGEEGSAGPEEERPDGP
Experiment: affinity purification with mass spectrometry; lysates from 3 × 10^7 transfected cells incubated with myc- or Flag-conjugated agarose beads overnight at 4°C; washed six times; eluted with 1 M glycine pH 3.0; specific bands cut from a Coomassie-stained SDS gel; LC-MS/MS

binding: binds
Substance: Axis inhibition protein 1 (Axin1) (from UniProt O15169 1-862)

No constants are given. Whether binding was seen depends on the method and setting. Binding seen in cells or lysates may run through a third protein. A yes stands for co-enrichment or nearness to the bait. Other partners may have been found. Sequences can lack the tags named with a protein.
